The record followed here is paper PMC12222672.

Results are given in words; binding and its absence hold for the method and conditions named. In cells and extracts the contact can be indirect.

For the test, the target named is β-catenin (human (endogenous in hESCs)) (UniProt P35222). In words: co-IP; endogenous, tag-free proteins from lysate of wt hESCs at 0 and 2 h of PS induction; 1 μg antibody (anti-p53 or anti-β-catenin) with 1 mg lysate protein overnight at 4 °C, Protein G Mag Sepharose; Co-IP buffer (40 mmol/L Hepes pH 7.4, 120 mmol/L NaCl, 1 mmol/L EDTA, 1% NP-40, 5% glycerol); western blot.

Take p53 (from UniProt P04637 1-393): the binding entry is on record as “no binding”.
